# From article PMC3695902
# B1: KCNF1 (voltage-gated potassium channel Kv5.1) fragment 215-489, MYTH prey clone (domain or fragment, UniProt Q9H3M0 215-489)
# chain: NRVEHPTLENVETACIGWFTLEYLLRLFSSPNKLHFALSFMNIVDVLAILPFYVSLTLTHLGARMMELTNVQQAVQALRIMRIARIFKLARHSSGLQTLTYALKRSFKELGLLLMYLAVGIFVFSALGYTMEQSHPETLFKSIPQSFWWAIITMTTVGYGDIYPKTTLGKLNAAISFLCGVIAIALPIHPIINNFVRYYNKQRVLETAAKHELELMELNSSSGGEGKTGGSRSDLDNLPPEPAGKEAPSCSSRLKLSHSDTFIPLLTEEKHHRTR
# B2: VAPA (vesicle-associated membrane protein-A, VAP33) fragment 86-236, MYTH prey clone (domain or fragment, UniProt Q9P0L0-1 86-236)
# chain: DPNEKSKHKFMVQTIFAPPNTSDMEAVWKEAKPDELMDSKLRCVFEMPNENDKLNDMEPSKAVPLNASKQDGPMPKPHSVSLNDTETRKLMEECKRLQGEMMKLSEENRHLRDEGLRLRKVAHSDKPGSTSTASFRDNVTSPLPSLLVVIA
# B3: WLS (Wntless/GPR177) fragment 451-541, MYTH prey clone (domain or fragment, UniProt Q5T9L3-1 451-541)
# chain: IVSQVTEGHWKWGGVTVQVNSAFFTGIYGMWNLYVFALMFLYAPSHKNYGEDQSNGDLGVHSGEELQLTTTITHVDGPTEIYKLTRKEAQE
# B4: AUP1 (ancient ubiquitous protein 1) fragment 321-410, Y2H prey clone (domain or fragment, UniProt Q9Y679-2 321-410)
# chain: AKTGCVDLTITNLLEGAVAFMPEDITKGTQSLPTASASKFPSSGPVTPQPTALTFAKSSWARQESLQERKQALYEYARRRFTERRAQEAD
# B5: S-tagged SIAH1 (residues 1-282, pET30a) (protein, UniProt Q8IUQ4-1 1-282)
# chain: MSRQTATALPTGTSKCPPSQRVPALTGTTASNNDLASLFECPVCFDYVLPPILQCQSGHLVCSNCRPKLTCCPTCRGPLGSIRNLAMEKVANSVLFPCKYASSGCEITLPHTEKADHEELCEFRPYSCPCPGASCKWQGSLDAVMPHLMHQHKSITTLQGEDIVFLATDINLPGAVDWVMMQSCFGFHFMLVLEKQEKYDGHQQFFAIVQLIGTRKQAENFAYRLELNGHRRRLTWEATPRSIHEGIATAIMNSDCLVFDTSIAQLFAENGNLGINVTISMC
# B6: S-tagged Zyxin (protein, UniProt Q15942-1 1-572)
# chain: MAAPRPSPAISVSVSAPAFYAPQKKFGPVVAPKPKVNPFRPGDSEPPPAPGAQRAQMGRVGEIPPPPPEDFPLPPPPLAGDGDDAEGALGGAFPPPPPPIEESFPPAPLEEEIFPSPPPPPEEEGGPEAPIPPPPQPREKVSSIDLEIDSLSSLLDDMTKNDPFKARVSSGYVPPPVATPFSSKSSTKPAAGGTAPLPPWKSPSSSQPLPQVPAPAQSQTQFHVQPQPQPKPQVQLHVQSQTQPVSLANTQPRGPPASSPAPAPKFSPVTPKFTPVASKFSPGAPGGSGSQPNQKLGHPEALSAGTGSPQPPSFTYAQQREKPRVQEKQHPVPPPAQNQNQVRSPGAPGPLTLKEVEELEQLTQQLMQDMEHPQRQNVAVNELCGRCHQPLARAQPAVRALGQLFHIACFTCHQCAQQLQGQQFYSLEGAPYCEGCYTDTLEKCNTCGEPITDRMLRATGKAYHPHCFTCVVCARPLEGTSFIVDQANRPHCVPDYHKQYAPRCSVCSEPIMPEPGRDETVRVVALDKNFHMKCYKCEDCGKPLSIEADDNGCFPLDGHVLCRKCHTARAQT
# B7: myc-tagged full-length AUP1 (protein, UniProt Q9Y679-2 1-410)
# chain: MELPSGPGPERLFDSHRLPGDCFLLLVLLLYAPVGFCLLVLRLFLGIHVFLVSCALPDSVLRRFVVRTMCAVLGLVARQEDSGLRDHSVRVLISNHVTPFDHNIVNLLTTCSTPLLNSPPSFVCWSRGFMEMNGRGELVESLKRFCASTRLPPTPLLLFPEEEATNGREGLLRFSSWPFSIQDVVQPLTLQVQRPLVSVTVSDASWVSELLWSLFVPFTVYQVRWLRPVHRQLGEANEEFALRVQQLVAKELGQTGTRLTPADKAEHMKRQRHPRLRPQSAQSSFPPSPGPSPDVQLATLAQRVKEVLPHVPLGVIQRDLAKTGCVDLTITNLLEGAVAFMPEDITKGTQSLPTASASKFPSSGPVTPQPTALTFAKSSWARQESLQERKQALYEYARRRFTERRAQEAD
# B8: myc-tagged full-length human SIAH1 (enzyme, UniProt Q8IUQ4-1 1-282)
# chain: B5 chain
# B9: myc-tagged full-length VAPA (protein, UniProt Q9P0L0-1 1-249)
# chain: MASASGAMAKHEQILVLDPPTDLKFKGPFTDVVTTNLKLRNPSDRKVCFKVKTTAPRRYCVRPNSGIIDPGSTVTVSVMLQPFDYDPNEKSKHKFMVQTIFAPPNTSDMEAVWKEAKPDELMDSKLRCVFEMPNENDKLNDMEPSKAVPLNASKQDGPMPKPHSVSLNDTETRKLMEECKRLQGEMMKLSEENRHLRDEGLRLRKVAHSDKPGSTSTASFRDNVTSPLPSLLVVIAAIFIGFFLGKFIL
# B10: myc-tagged full-length WLS (protein, UniProt Q5T9L3-1 1-541)
# chain: MAGAIIENMSTKKLCIVGGILLVFQIIAFLVGGLIAPGPTTAVSYMSVKCVDARKNHHKTKWFVPWGPNHCDKIRDIEEAIPREIEANDIVFSVHIPLPHMEMSPWFQFMLFILQLDIAFKLNNQIRENAEVSMDVSLAYRDDAFAEWTEMAHERVPRKLKCTFTSPKTPEHEGRYYECDVLPFMEIGSVAHKFYLLNIRLPVNEKKKINVGIGEIKDIRLVGIHQNGGFTKVWFAMKTFLTPSIFIIMVWYWRRITMMSRPPVLLEKVIFALGISMTFINIPVEWFSIGFDWTWMLLFGDIRQGIFYAMLLSFWIIFCGEHMMDQHERNHIAGYWKQVGPIAVGSFCLFIFDMCERGVQLTNPFYSIWTTDIGTELAMAFIIVAGICLCLYFLFLCFMVFQVFRNISGKQSSLPAMSKVRRLHYEGLIFRFKFLMLITLACAAMTVIFFIVSQVTEGHWKWGGVTVQVNSAFFTGIYGMWNLYVFALMFLYAPSHKNYGEDQSNGDLGVHSGEELQLTTTITHVDGPTEIYKLTRKEAQE
# B11: myc-tagged truncated SIAH1 (trSIAH1, residues 91-282) (domain or fragment, UniProt Q8IUQ4-1 91-282)
# chain: ANSVLFPCKYASSGCEITLPHTEKADHEELCEFRPYSCPCPGASCKWQGSLDAVMPHLMHQHKSITTLQGEDIVFLATDINLPGAVDWVMMQSCFGFHFMLVLEKQEKYDGHQQFFAIVQLIGTRKQAENFAYRLELNGHRRRLTWEATPRSIHEGIATAIMNSDCLVFDTSIAQLFAENGNLGINVTISMC
# B12: myc-tagged truncated SIAH2 (trSIAH2, residues 122-324) (domain or fragment, UniProt O43255 122-324)
# chain: IRNLAMEKVASAVLFPCKYATTGCSLTLHHTEKPEHEDICEYRPYSCPCPGASCKWQGSLEAVMSHLMHAHKSITTLQGEDIVFLATDINLPGAVDWVMMQSCFGHHFMLVLEKQEKYEGHQQFFAIVLLIGTRKQAENFAYRLELNGNRRRLTWEATPRSIHDGVAAAIMNSDCLVFDTAIAHLFADNGNLGINVTISTCCP
# B13: SIAH1 (seven in absentia homolog 1) fragment 1-233, Y2H prey clone (domain or fragment, UniProt Q8IUQ4-1 1-233)
# chain: MSRQTATALPTGTSKCPPSQRVPALTGTTASNNDLASLFECPVCFDYVLPPILQCQSGHLVCSNCRPKLTCCPTCRGPLGSIRNLAMEKVANSVLFPCKYASSGCEITLPHTEKADHEELCEFRPYSCPCPGASCKWQGSLDAVMPHLMHQHKSITTLQGEDIVFLATDINLPGAVDWVMMQSCFGFHFMLVLEKQEKYDGHQQFFAIVQLIGTRKQAENFAYRLELNGHRRR
# B14: SIAH2 (seven in absentia homolog 2) fragment 122-324, Y2H prey clone (domain or fragment, UniProt O43255 122-324)
# chain: B12 chain
# Tests used:
# [1] = biological target: full-length human mu-opioid receptor (MOR), MYTH bait in pCCW-STE (human); assay: two-hybrid; split-ubiquitin membrane yeast two-hybrid (MYTH) screen: full-length human MOR bait in pCCW-STE, human fetal brain library in pPR3-N, strain THY.AP4; quadruple dropout plates with 3AT; β-gal
# [2] = biological target: MOR C-terminal tail (C-tail, residues 361-420) fused to the GAL4 DNA binding domain (human); assay: two-hybrid; directed traditional Y2H: MOR IL1, IL2, IL3 or C-tail in pAS2-1 co-transformed with MORIP cDNA clones in pACT2 into MaV103; β-gal activity (blue colony)
# [3] = biological target: MOR-IL2-GST fusion protein (residues 166-187, pGEX-4T-1) (human); assay: pull-down; GST fusion protein bound to glutathione sepharose beads pulls down S-tagged protein from bacterial lysate; Western blot with HRP-conjugated anti-S-tag antibody; beads alone and GST-coated beads as controls; only the target purified
# [4] = biological target: FLAG-tagged mu-opioid receptor stably expressed in HEK293 cells (HEK-MOR); assay: co-IP; FLAG-tagged MOR, DOR or KOR immunoprecipitated with rabbit anti-FLAG on Protein-G Dynabeads from 1 mg lysate of stably expressing HEK293 cells transfected with tagged MORIPs; blot anti-myc or anti-HA; mock IP with non-specific rabbit IgG; cells of Figure 7B treated 6 hours with 30 µM MG132
binder,measurement,setting,value
B1,binding,[1],binds
B2,binding,[1],binds
B3,binding,[1],binds
B4,binding,[2],binds
B5,binding,[3],binds
B6,binding,[3],binds
B7,binding,[4],binds
B8,binding,[4],binds
B9,binding,[4],binds
B10,binding,[4],binds
B11,binding,[4],binds
B12,binding,[4],binds
B13,binding,[2],no binding
B14,binding,[2],no binding

# These are yes or no findings as the source states them, for the method shown. Binding calls can cover weak binding; strength is not graded here. For some assays here: Sequences can lack the tags named with a protein. For some assays here: Binding seen in cells or lysates may run through a third protein.
